Test results: patent US12527774B2, “Estrogen-related receptor alpha modulators” (LEAD PHARMA HOLDING B.V., priority 2019, dated 2026)

Tested on: B16F10 melanoma
Assay: B16F10 Melanoma Syngeneic Mouse Model
Details: 30 mpk p.o., q.d., C57BL/6 mice; for Tumor Growth Inhibition (%): Day 13
Experimental: B16F10 Melanoma Syngeneic Mouse Model
Examples inhibitors 100, 191, 192, 194 and 196 were tested for their ability to inhibit tumor growth in a B16F10 melanoma syngeneic mouse model.
Cell line and tumor model: B16F10 melanoma cell line derived allograft model in C57BL/6 mice.
Mouse B16F10 melanoma cells were sourced from American Type Culture Collection (ATCC), USA. Cells were grown in DMEM (Invitrogen, Catalogue No. 31600-034) supplemented with 10% FBS (Invitrogen, Catalogue No. 10438-026), and 1% penicillin streptomycin (Thermo Fisher Scientific, Catalogue No. 15140-122). To establish allografts, the cells were harvested by trypsinization when they reach around 70 to 80% confluence and 0.1 million B16F10 cells were suspended in 50 μl of serum free medium and mixed at 1:1 ratio with matrigel before implanting subcutaneously into the dorsal right flank of mice using a 1 mL BD syringe attached to a 24-gauge needle.
B16F10 tumor grafts were measured after 5 days of cell inoculation once they became palpable. When the average tumor volume reached around 58 mm^3, animals were dosed after randomization into different treatment groups keeping tumor volume and number of animals in such a way so that the average tumor volume of each group remained same across the groups. Dosing was performed on a per kilogram weight basis, by mouth (per os, p.o.) once a day (quaque die, q.d).
Tumor dimensions—length (I) and breadth (b)—were measured by caliper on the day of animal randomization based on tumor volume (Day 1) and thrice weekly thereafter until study termination. Tumor volumes were calculated using the formula b^2*I*0.52 where l=length, b=breadth (Dusan Djokovic et al., BMC Cancer, 2010, 10:641). Tumor growth inhibition was calculated after normalizing the tumor volume on a given day to that on Day 1.
Test items administration was started when tumor volume reached an average of 58 mm^3.
Administration of test items was carried out until Day 14 and measurement of tumor volume was carried out until Day 13 for computing percent tumor growth inhibition (TGI).

| Compound | Tumor Volume (mm^3) Day 13 | Tumor Growth Inhibition (%) |
| --- | --- | --- |
| COc1cc([C@@H]2CC(=O)Nc3n[nH]cc32)ccc1COc1ccc(C(F)(F)F)cc1C(F)(F)F | 518 ± 62 mm^3 | 74% |
| COc1cc([C@H]2CC(=O)Nc3n[nH]cc32)ccc1COc1ccc(C(F)(F)F)cc1C(F)(F)F | 552 ± 91 mm^3 | 72% |

Structures were worked out from names or drawings and are uncertain.
